Measurements: the supplement of paper PMC12067093, “Discovery and optimisation of a covalent ligand for TRIM25 and its application to targeted protein ubiquitination” (Chemical Science, 2025)
The list shows a part of the results.

Amino acid sequences for entries named in this document (tags omitted). A change or cut given only in a name is not applied to a line headed by its entry.
UniProt P60842, whole entry, looked up: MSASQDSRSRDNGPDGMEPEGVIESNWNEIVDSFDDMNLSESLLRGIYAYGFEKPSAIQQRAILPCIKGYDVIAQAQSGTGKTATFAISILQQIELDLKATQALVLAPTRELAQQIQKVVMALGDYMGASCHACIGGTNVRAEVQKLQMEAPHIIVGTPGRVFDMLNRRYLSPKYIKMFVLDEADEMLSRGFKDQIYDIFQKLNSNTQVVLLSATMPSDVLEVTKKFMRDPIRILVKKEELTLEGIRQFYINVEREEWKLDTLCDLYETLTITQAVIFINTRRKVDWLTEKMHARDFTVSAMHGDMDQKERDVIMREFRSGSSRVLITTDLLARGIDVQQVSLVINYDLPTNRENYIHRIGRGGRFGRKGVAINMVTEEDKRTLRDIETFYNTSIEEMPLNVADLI
UniProt O75821, whole entry, looked up: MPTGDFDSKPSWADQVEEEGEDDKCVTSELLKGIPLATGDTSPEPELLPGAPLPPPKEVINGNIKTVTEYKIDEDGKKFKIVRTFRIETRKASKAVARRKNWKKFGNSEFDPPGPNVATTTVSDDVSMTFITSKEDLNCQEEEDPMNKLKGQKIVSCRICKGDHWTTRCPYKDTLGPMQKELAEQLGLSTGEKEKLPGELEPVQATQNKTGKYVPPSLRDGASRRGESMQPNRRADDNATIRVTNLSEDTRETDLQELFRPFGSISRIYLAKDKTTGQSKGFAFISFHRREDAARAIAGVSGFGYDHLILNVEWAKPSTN
UniProt P07814: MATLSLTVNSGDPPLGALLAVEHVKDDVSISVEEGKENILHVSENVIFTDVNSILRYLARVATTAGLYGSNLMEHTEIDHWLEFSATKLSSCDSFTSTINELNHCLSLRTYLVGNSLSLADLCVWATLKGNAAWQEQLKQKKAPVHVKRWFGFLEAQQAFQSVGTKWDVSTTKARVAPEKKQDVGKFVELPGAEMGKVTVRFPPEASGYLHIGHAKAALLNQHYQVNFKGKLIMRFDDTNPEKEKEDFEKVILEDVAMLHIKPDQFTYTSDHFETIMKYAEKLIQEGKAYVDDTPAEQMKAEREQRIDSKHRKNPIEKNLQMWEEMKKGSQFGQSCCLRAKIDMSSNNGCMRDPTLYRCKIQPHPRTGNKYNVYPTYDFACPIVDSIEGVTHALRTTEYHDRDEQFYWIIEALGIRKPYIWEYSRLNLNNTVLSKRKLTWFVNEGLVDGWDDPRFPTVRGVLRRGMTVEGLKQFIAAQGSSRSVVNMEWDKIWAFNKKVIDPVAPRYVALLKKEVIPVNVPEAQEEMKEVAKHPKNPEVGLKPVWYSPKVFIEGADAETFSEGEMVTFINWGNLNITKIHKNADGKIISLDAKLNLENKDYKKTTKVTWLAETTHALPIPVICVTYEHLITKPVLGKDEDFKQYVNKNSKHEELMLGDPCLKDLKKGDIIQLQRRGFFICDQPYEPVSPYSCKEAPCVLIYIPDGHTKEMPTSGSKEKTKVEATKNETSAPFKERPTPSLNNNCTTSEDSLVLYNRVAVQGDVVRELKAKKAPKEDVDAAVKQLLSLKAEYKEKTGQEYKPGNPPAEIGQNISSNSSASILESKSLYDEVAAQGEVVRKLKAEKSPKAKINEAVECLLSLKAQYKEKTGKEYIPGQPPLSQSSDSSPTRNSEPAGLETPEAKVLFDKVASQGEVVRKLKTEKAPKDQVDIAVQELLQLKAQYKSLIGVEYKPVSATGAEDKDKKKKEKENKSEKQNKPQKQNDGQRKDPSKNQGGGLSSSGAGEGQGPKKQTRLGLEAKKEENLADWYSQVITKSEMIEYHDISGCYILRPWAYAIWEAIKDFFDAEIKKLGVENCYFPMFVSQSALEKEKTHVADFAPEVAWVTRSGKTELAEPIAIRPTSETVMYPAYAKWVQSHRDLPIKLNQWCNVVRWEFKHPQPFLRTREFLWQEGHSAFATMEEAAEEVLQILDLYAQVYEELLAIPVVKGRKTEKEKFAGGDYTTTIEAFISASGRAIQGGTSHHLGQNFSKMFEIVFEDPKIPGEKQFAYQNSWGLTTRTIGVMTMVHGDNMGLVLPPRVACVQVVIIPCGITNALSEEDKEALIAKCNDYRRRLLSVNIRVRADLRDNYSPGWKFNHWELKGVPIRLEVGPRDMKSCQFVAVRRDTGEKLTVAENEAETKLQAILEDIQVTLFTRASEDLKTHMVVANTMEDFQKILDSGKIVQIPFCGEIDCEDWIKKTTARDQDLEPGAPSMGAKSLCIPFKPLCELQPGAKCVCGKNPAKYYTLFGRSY
UniProt Q9HC35: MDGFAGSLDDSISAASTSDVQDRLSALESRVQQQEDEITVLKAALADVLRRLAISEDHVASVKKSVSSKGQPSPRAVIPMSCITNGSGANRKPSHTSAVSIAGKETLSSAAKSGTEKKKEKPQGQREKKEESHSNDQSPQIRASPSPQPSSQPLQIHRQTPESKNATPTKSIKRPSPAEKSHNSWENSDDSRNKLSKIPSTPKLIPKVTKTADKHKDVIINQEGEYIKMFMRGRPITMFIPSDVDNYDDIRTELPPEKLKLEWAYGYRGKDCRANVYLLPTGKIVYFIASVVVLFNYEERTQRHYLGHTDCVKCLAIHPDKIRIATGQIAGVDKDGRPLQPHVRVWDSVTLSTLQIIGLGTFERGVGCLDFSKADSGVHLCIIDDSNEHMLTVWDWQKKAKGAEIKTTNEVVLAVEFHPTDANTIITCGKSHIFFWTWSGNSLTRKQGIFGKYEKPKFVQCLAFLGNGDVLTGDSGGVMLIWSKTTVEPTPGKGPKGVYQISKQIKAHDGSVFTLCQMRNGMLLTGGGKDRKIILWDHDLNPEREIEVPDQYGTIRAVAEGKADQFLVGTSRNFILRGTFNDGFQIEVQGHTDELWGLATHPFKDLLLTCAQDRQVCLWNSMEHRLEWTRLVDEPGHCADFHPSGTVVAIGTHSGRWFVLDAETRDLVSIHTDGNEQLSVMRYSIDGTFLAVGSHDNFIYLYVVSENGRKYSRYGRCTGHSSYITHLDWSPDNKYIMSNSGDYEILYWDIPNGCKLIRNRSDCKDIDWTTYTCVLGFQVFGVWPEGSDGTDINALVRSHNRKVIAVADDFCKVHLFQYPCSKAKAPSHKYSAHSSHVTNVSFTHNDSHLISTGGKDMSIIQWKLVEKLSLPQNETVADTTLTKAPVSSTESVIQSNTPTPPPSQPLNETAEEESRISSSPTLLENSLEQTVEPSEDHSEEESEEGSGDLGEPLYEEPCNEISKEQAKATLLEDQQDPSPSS
UniProt P34913, whole entry, looked up: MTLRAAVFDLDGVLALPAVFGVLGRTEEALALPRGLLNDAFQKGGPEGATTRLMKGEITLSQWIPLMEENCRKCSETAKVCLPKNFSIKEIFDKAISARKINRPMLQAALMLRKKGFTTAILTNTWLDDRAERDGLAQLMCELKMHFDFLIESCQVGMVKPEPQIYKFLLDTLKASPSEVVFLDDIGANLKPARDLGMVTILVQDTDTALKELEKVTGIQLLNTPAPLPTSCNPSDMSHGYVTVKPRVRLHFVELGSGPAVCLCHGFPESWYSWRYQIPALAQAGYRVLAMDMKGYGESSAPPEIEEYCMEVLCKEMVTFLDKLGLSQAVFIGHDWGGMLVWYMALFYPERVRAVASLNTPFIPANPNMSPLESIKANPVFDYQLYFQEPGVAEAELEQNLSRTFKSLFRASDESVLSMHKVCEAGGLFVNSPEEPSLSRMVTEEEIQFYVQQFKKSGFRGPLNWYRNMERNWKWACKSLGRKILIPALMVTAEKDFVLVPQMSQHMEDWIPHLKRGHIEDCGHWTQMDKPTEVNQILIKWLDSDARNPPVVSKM
UniProt Q9NZ08: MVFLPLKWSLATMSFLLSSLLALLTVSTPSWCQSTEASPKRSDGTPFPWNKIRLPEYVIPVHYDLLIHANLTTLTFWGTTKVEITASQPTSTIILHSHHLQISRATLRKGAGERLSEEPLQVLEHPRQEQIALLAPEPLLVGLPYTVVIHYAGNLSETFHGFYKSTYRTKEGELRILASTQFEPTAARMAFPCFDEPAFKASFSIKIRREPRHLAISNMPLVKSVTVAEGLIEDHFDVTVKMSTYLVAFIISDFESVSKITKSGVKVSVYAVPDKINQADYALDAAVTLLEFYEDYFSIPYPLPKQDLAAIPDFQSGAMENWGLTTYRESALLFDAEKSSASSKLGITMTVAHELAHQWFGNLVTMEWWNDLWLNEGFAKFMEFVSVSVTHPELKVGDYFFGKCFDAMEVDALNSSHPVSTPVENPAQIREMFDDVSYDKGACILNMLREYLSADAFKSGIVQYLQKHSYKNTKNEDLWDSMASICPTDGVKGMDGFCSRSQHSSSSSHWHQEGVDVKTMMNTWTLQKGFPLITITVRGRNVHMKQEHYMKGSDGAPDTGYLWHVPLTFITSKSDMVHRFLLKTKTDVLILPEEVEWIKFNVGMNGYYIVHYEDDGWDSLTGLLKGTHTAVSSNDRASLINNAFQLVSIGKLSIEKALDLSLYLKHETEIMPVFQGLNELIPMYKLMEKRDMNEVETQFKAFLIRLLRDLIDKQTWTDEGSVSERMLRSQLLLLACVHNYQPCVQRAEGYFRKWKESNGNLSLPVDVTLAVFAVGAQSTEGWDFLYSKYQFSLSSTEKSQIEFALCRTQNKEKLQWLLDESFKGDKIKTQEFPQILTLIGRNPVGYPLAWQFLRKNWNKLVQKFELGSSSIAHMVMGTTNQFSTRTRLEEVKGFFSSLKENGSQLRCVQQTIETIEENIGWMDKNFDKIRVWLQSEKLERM
UniProt Q96RT1: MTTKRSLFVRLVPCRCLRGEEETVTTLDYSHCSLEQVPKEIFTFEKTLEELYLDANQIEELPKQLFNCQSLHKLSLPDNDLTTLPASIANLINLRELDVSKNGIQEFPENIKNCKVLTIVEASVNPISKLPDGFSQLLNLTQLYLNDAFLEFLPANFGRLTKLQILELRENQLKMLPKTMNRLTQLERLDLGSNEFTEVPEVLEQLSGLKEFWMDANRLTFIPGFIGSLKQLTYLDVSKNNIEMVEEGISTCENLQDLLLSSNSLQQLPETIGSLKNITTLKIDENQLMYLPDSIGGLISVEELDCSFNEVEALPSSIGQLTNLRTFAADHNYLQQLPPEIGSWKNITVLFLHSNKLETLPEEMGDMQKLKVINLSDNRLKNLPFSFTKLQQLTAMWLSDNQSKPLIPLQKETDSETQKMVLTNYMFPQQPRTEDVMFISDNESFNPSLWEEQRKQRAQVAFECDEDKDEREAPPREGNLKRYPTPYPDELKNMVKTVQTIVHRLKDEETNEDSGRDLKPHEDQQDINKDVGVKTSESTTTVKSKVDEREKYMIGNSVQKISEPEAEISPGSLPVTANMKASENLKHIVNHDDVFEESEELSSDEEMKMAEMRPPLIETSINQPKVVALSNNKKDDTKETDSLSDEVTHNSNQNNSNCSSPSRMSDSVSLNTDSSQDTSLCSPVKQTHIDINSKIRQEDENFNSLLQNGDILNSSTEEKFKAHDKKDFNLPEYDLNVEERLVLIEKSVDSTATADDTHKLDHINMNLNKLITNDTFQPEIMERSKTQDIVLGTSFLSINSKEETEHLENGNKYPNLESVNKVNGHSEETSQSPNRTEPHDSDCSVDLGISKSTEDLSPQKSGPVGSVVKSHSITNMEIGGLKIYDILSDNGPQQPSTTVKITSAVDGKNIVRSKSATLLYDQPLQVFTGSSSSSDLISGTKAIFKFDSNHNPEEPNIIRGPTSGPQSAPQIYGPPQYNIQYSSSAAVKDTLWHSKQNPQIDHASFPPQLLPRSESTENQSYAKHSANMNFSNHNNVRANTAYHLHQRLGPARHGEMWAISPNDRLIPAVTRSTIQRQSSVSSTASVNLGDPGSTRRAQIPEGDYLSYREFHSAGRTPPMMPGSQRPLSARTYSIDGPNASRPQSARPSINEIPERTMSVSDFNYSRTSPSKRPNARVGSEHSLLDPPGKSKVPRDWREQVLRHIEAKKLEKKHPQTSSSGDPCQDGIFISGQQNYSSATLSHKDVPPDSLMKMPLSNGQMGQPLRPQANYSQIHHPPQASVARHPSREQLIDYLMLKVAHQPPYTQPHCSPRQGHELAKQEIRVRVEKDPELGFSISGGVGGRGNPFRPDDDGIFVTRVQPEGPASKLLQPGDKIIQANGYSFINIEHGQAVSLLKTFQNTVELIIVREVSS
UniProt Q7L2H7, whole entry, looked up: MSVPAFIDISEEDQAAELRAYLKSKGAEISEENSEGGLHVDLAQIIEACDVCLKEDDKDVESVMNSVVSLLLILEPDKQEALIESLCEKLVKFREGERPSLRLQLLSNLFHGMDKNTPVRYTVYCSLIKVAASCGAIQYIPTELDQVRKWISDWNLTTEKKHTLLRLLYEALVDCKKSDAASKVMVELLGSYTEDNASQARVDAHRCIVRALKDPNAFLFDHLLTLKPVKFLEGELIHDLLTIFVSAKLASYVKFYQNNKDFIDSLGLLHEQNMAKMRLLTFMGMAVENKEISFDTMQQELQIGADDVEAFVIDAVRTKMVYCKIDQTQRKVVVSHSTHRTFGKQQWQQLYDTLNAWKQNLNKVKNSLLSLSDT

Compound: Cc1cc(ccc1-c1ccccc1)C(=O)N1CCCN(CC1)C(=O)CCl [compound 10]
Assay: probe-labelled cysteine peptide fold change vs DMSO (competition) (log2 fold change); higher = less target engagement (more negative = stronger competition)
Details: THP-1, incubation time: 4 h
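Also: competitive profiling in live THP-1 cells: cysteine peptides tagged with an iodoacetamide desthiobiotin (IA-DTB) probe, intensity after compound treatment relative to DMSO-treated cells.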

| Target | probe-labelled cysteine peptide fold change (10 µM) | probe-labelled cysteine peptide fold change (50 µM) |
| --- | --- | --- |
| ELAC2_Q9BQ52_640_TCDLEEFQTCLVR (UniProt Q9BQ52) | 0.0019 | -0.0197 |
| EIF4A1_P60842_134_VVMALGDYMGASCHACIGGTNVR (UniProt P60842) | 0.122 | 0.172 |
| EIF3G_O75821_25_CVTSELLK (UniProt O75821) | -0.265 | -0.0476 |
| ELP2_Q6IA86_572+575_LYGHGYEIFCVTCNSSK (UniProt Q6IA86) | 0.105 | -0.17 |
| EPRS_P07814_697_EAPCVLIYIPDGHTK (UniProt P07814) | 0.0998 | 0.0105 |
| EIF4G2_P78344_253_DMGEDLECLCQIMR (UniProt P78344) | 0.0454 | -0.0142 |
| EML4_Q9HC35_368_GVGCLDFSK (UniProt Q9HC35) | -0.0767 | 0.0607 |
| EPRS_P07814_336+337_GSQFGQSCCLR (UniProt P07814) | -0.163 | -0.608 |
| EPHX2_P34913_309_GYGESSAPPEIEEYCMEVLCK (UniProt P34913) | 0.173 | 0.147 |
| EIF4E_P06730_170_IAIWTTECENR (UniProt P06730) | -0.102 | -0.00663 |
| ELMO1_Q92556_438_VGELPSETCNDFHPMFFTHDR (UniProt Q92556) | 0.319 | 0.338 |
| EML3_Q32P44_816_VVAVADDFCK (UniProt Q32P44) | -0.0999 | -0.206 |
| ENO1_P06733_337_SCNCLLLK (UniProt P06733) | 0.118 | -0.0633 |
| ERAP1_Q9NZ08_193_MAFPCFDEPAFK (UniProt Q9NZ08) | -0.111 | -0.0504 |
| EMC9_Q9Y3B6_177_AHQHLVDFDCHLDDIR (UniProt Q9Y3B6) | 0.0368 | 0.244 |
| EP400_Q96L91_879_EIECFWSNIEQVVEIK (UniProt Q96L91) | -0.106 | 0.0487 |
| ELP2_Q6IA86_769_KTDQVPEINDWTHCVETSQSQSHTLAIR (UniProt Q6IA86) | -0.00759 | 0.172 |
| EML2_O95834_395_AQFVTCGQDK (UniProt O95834) | -0.0631 | -0.172 |
| ELOVL1_Q9BW60_93_CDPVDYSNSPEALR (UniProt Q9BW60) | -0.0503 | 0.318 |
| ENG_P17813_582_LNIISPDLSGCTSK (UniProt P17813) | -0.384 | -0.275 |
| EPRS_P07814_680_RGFFICDQPYEPVSPYSCK (UniProt P07814) | -0.111 | -0.437 |

| Target | probe-labelled cysteine peptide fold change (10 µM) | probe-labelled cysteine peptide fold change (50 µM) |
| --- | --- | --- |
| ERCC3_P19447_342_SGVIVLPCGAGK (UniProt P19447) | -0.235 | -1.63 |
| ELOVL5_Q9NYP7_61_NKQPFSCR (UniProt Q9NYP7) | -0.567 | -1.94 |
| ERBIN_Q96RT1_464_AQVAFECDEDKDER (UniProt Q96RT1) | -0.178 | -0.00478 |
| EPRS_P07814_123_TYLVGNSLSLADLCVWATLK (UniProt P07814) | 0.212 | -0.0514 |
| EIF5B_O60841_853_LAHCEELR (UniProt O60841) | 0.00613 | -0.0971 |
| EPHX2_P34913_71_GEITLSQWIPLMEENCR (UniProt P34913) | 0.288 | 0.305 |
| EPHX2_P34913_522_GHIEDCGHWTQMDKPTEVNQILIK (UniProt P34913) | -0.114 | -0.26 |
| EMB_Q6PCB8_142_QMGSYSCFFR (UniProt Q6PCB8) | -0.126 | 0.0847 |
| ELP1_O95163_1025_ALSAFLTCGNWK (UniProt O95163) | 0.116 | 0.00568 |
| EML4_Q9HC35_638_LVDEPGHCADFHPSGTVVAIGTHSGR (UniProt Q9HC35) | 0.109 | 0.328 |
| EIF4H_Q15056_85_GFCYVEFDEVDSLK (UniProt Q15056) | 0.155 | -0.0372 |
| ERCC4_Q92889_176_AFTDNAVAFDTGFCHVER (UniProt Q92889) | -0.0669 | -0.0927 |
| ENOPH1_Q9UHY7_202_KIADSIGCSTNNILFLTDVTR (UniProt Q9UHY7) | -0.0703 | -0.42 |
| EIF3M_Q7L2H7_52_GAEISEENSEGGLHVDLAQIIEACDVCLK (UniProt Q7L2H7) | 0.176 | 0.287 |
| EPB41L2_O43491_424_LGVCANGLLIYK (UniProt O43491) | -0.0328 | 0.0811 |
| EMC8_O43402_136_FTMDCVAPTIHVYEHHENR (UniProt O43402) | -0.0825 | 0.0294 |
| ERAP1_Q9NZ08_743_SQLLLLACVHNYQPCVQR (UniProt Q9NZ08) | -0.249 | 0.425 |
| ELANE_P08246_187_SNVCTLVR (UniProt P08246) | 0.205 | 0.0156 |
| ERBIN_Q96RT1_464_AQVAFECDEDK (UniProt Q96RT1) | 0.0695 | 0.521 |
| EIF3G_O75821_139_EDLNCQEEEDPMNK (UniProt O75821) | -0.351 | -0.173 |
| EIF3M_Q7L2H7_175_LLYEALVDCKK (UniProt Q7L2H7) | 0.0635 | 0.338 |

Looked up one by one from the entries so far:

| Target | probe-labelled cysteine peptide fold change (10 µM) | probe-labelled cysteine peptide fold change (50 µM) |
| --- | --- | --- |
| EML4_Q9HC35_368_GVGCLDFSK (UniProt Q9HC35) | -0.0767 | 0.0607 |
| EIF4A1_P60842_134_VVMALGDYMGASCHACIGGTNVR (UniProt P60842) | 0.122 | 0.172 |
